These results are taken from publication PMC7819943, “Rice protein-binding microarrays: a tool to detect cis-acting elements near promoter regions in rice”.

Protein sequences, listed by entry. Tags and fused reporters are not part of them.
UniProt Q0JBA9, entry or part of it: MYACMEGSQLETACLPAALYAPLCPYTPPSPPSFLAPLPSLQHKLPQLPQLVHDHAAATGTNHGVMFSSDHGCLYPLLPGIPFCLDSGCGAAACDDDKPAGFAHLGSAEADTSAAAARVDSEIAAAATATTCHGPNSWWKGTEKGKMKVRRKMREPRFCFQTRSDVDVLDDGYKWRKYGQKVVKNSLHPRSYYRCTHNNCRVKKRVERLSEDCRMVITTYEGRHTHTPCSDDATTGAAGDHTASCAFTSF

Some of the results follow.

The assay deals with OsWRKY34 (Oryza sativa, UniProt Q0JBA9 1-250). Description: protein-binding microarray (RPBM); PBS, 2% BSA, 51.3 ng/ul salmon testes DNA, 50 uM zinc acetate, 200 nM TF, 25 C, 1 h; high values mean tight binding. The following applies: protein: recombinant; tags: N-terminal polyhistidine and DsRed monomer fusion (pET32a); label: CyDye5-dUTP incorporated in the synthesized complementary strand; 3' TTTTT single-stranded linker to array surface; dsDNA, one strand shown. An outline of the steps: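 Transcription factors, each fused N-terminally to a polyhistidine tag and DsRed, were expressed in E. coli BL21-CodonPlus and purified on Ni–NTA. A custom Agilent array was made double-stranded by primer extension with Cy5-dUTP and blocked with 2% BSA. It was incubated with 200 nM protein in PBS, 2% BSA, salmon testes DNA and 50 µM zinc acetate at 25 °C for 1 h, then washed. The binding signal is per-feature fluorescence intensity (arbitrary units) read on an Axon 4000B scanner.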
In the case of “GCTCCTCATCATGGTCGCTGCGCTAGGTTTCCTCATGGTGCGGAGTCACCTAGTGCAG”, the binding signal is 8890 fluorescence intensity (a.u.).
The same measure for “GAACGGGTCTCCGACTCCTCGTAGTTTTCTCTCTCTTTTTCGGAGTCACCTAGTGCAG”: 11900 fluorescence intensity (a.u.).
For the sequence “GCCATATATATTACCCTTATCATTACCATGGCGGGAAAGACGGAGTCACCTAGTGCAG”, the binding signal is 8630 fluorescence intensity (a.u.).
Then “TCGCTCTACCGTTTCCACTCGCGGGAGCACCGCGTCCACCCGGAGTCACCTAGTGCAG”, with 9870 fluorescence intensity (a.u.); and “TCGTCGAACGACACCTGCACACACACGCGCACGAGCGACGCGGAGTCACCTAGTGCAG”, with 8150 fluorescence intensity (a.u.).
The same measure for “TGCTGACTTGGCGTTGACCTGTGAAATTCTCTCGCTTCACCGGAGTCACCTAGTGCAG”: 11500 fluorescence intensity (a.u.).
The same measure for “AATGGTTGGTTGTCTGCTGGTGTTAACTGGAGCGGAATTACGGAGTCACCTAGTGCAG”: 10500 fluorescence intensity (a.u.); for “TACTGTCAATTTTCACAACCTCTAGAGGATCTCCATTGACCGGAGTCACCTAGTGCAG”: 8170 fluorescence intensity (a.u.); for “CTACGATACACCGCTTGTTTCTGTTTTTCTTATCTAGGAACGGAGTCACCTAGTGCAG”: 9180 fluorescence intensity (a.u.).
Regarding “AAGAAACAGATCCAACCAATTCGCTCGCTTAAGCCGCCGGCGGAGTCACCTAGTGCAG”, the binding signal is 8330 fluorescence intensity (a.u.).
The same measure for “CGCACCTCCTTACGCTCACCGTACACAAGATCAAAATTTTCGGAGTCACCTAGTGCAG”: 9880 fluorescence intensity (a.u.).
For “CCACTGACTACTGATGGGTGTGTTGATAGTGTTTTGTCAGCGGAGTCACCTAGTGCAG”, the binding signal was 8870 fluorescence intensity (a.u.).
The same measure for “ATTGATTTTTTTTCCATATTTAATCCTTTATGTATGTGTCCGGAGTCACCTAGTGCAG”: 8060 fluorescence intensity (a.u.); for “TTAAATGTGTGATTTGTTTTGTTATTAGTCTACGTTTAATCGGAGTCACCTAGTGCAG”: 8850 fluorescence intensity (a.u.).
For the sequence “AACCGCCTAGAGAGTCAAATTGCATCGGTTTCAATAGTTTCGGAGTCACCTAGTGCAG”, the binding signal was 8070 fluorescence intensity (a.u.).
Then “GTTTCCTTCGTTTCAGATTACTCATTATTTTAGCTTTTTTCGGAGTCACCTAGTGCAG”, with 13800 fluorescence intensity (a.u.); and “CATCCGTTCCATTTTAAGTGCAACTTTCCACGCTCAATTTCGGAGTCACCTAGTGCAG”, with 10500 fluorescence intensity (a.u.); and “TCTTCATCGCCCACGTGGTCCACTCCGCCGCGAGCCGCGCCGGAGTCACCTAGTGCAG”, with 11700 fluorescence intensity (a.u.).
The same measure for “CGCCGCCGCCACCGCCACCGCCGCCGCCGCCTTGCGCCTCCGGAGTCACCTAGTGCAG”: 8700 fluorescence intensity (a.u.); for “CGCAAACCGTGACTTTCCGTGGGCCCCACCACCCCACCACCGGAGTCACCTAGTGCAG”: 12000 fluorescence intensity (a.u.).
Then “CCGTTGTTGTGTGTGTTCATGTGCCTCTGTACACATCAGACGGAGTCACCTAGTGCAG”, with 9670 fluorescence intensity (a.u.).
As to “CTCTTGATTGTATCCTTAGGCACTTTGTATATTCTCGAGTCGGAGTCACCTAGTGCAG”, the binding signal was 8540 fluorescence intensity (a.u.).
Then “TAACGCGATCCACTTGTGCCTCTTGTCGGTCCAGTTTGAACGGAGTCACCTAGTGCAG”, with 8060 fluorescence intensity (a.u.).
For the sequence “ACCATTTCATAGTAGTTACAAATTTAAAATGTTTGATTCCCGGAGTCACCTAGTGCAG”, the binding signal is 8380 fluorescence intensity (a.u.).
The same measure for “GGAGTGGATGTGTGGAGGGGTTGGAGTTGGAATGTGAGATCGGAGTCACCTAGTGCAG”: 13200 fluorescence intensity (a.u.).
With “CTCTGTATTTTGTTAGGCAAATCTGCAATCGGAGAAGTCACGGAGTCACCTAGTGCAG”, the binding signal is 8690 fluorescence intensity (a.u.).
The same measure for “ACACACTCCCACGCACTTTGCCCTTCTCTTCACGGGGCTTCGGAGTCACCTAGTGCAG”: 10600 fluorescence intensity (a.u.); for “AAAGAGTGGAAGCAATGTGGAGTTATATGTTTAGCAAAACCGGAGTCACCTAGTGCAG”: 8210 fluorescence intensity (a.u.).
The same measure for “AGAGTCTCCCTTGCGCCACGTTTCTCGCGTCCGTTCTTCTCGGAGTCACCTAGTGCAG”: 9270 fluorescence intensity (a.u.); for “GACTCCTCCTGCTCTGTTTGTTCGAGTAATTAATTAAGCTCGGAGTCACCTAGTGCAG”: 10300 fluorescence intensity (a.u.).
The same measure for “CAGCAGCCGCCTCCGCCGCCGCCACCGCCGCCGCGCGGTCCGGAGTCACCTAGTGCAG”: 9340 fluorescence intensity (a.u.); for “TTTGCCGCACCACAGCGTAGTCTCGCCTCGCCTTCCGGAACGGAGTCACCTAGTGCAG”: 12600 fluorescence intensity (a.u.).
“TATCATTATATAGAAAGCGTTGCGTTGTTGACTCGTTGTACGGAGTCACCTAGTGCAG”: the binding signal was 8490 fluorescence intensity (a.u.).
Regarding “TTCATGTATAGGAACCATCTTTGCTTAGTTTTTGAATCTCCGGAGTCACCTAGTGCAG”, the binding signal was 9340 fluorescence intensity (a.u.).
Then “ATTCCAACGCTACGTATCCAACCGCGATCGCTTCGTCAAACGGAGTCACCTAGTGCAG”, with 9320 fluorescence intensity (a.u.); and “CTGTTTGGTAGAGTTTGCCACTTTCGAATGAAATTCGAACCGGAGTCACCTAGTGCAG”, with 10100 fluorescence intensity (a.u.); and “GCGACCCAAATGACGTCCACGTGTAAATATCTTCGCTCCGCGGAGTCACCTAGTGCAG”, with 8360 fluorescence intensity (a.u.).
Then “GATATCGAATGATTGTACTCGAAACACATGCCATGCTTCTCGGAGTCACCTAGTGCAG”, with 8150 fluorescence intensity (a.u.).
On to “GACAGTTTCCCGCGCTTTTTTTTTGCCCCTCTCTCCGGCGCGGAGTCACCTAGTGCAG”, for which the binding signal is 11300 fluorescence intensity (a.u.).
The same measure for “GACTTCAGATAGTTCTCCTGGTGCTGTTTTTATCGTCCAGCGGAGTCACCTAGTGCAG”: 9990 fluorescence intensity (a.u.); for “AAAAACTGGGCCAGCTTTTTGTTTTTTTTACCACCCACAGCGGAGTCACCTAGTGCAG”: 9010 fluorescence intensity (a.u.).
The same measure for “AAGCCACACGAGCCACCGGAAGCTTGACATCACAATTAAACGGAGTCACCTAGTGCAG”: 8170 fluorescence intensity (a.u.).
